Source: patent US11065304B2 (MEDERIS DIABETES, LLC, priority 2012, dated 2021)

Assay: general procedure: Fmoc solid-phase peptide synthesis; HMP amide resin; DIC/HOBt
Conditions: whole synthesis, analytical hplc (CH3CN in 0.1% TFA)/mass spectrometry, scale 2 mmole

## His1-Aib2-Gln3-Gly4-Thr5-Phe6-Thr7-Ser8-Asp9-Tyr10-Ser11-Lys12-Tyr13-Leu14-Asp15-Glu*16-Gln17 Ala18-Ala19-Lys*20-Glu21-Phe22-Ile23-Lys(N-omega(1-tetradecyl beta-D-melibiouronyl))24-Trp25-Leu26-Leu27-Gln28-Thr29-NH2
  final HPLC purity: 98.7%
